Results: paper PMC12672510
These are yes or no findings as the source states them, for the method shown. Binding seen in cells or lysates may run through a third protein. Some results given as binding are weak or reduced against the parent protein; the word gives no strength. Tags and fused reporters may be left off the sequences shown.

By UniProt entry, the sequences of proteins in these tests, tags left out. Where a name states a change or a piece, a line headed by the entry shows the natural chain unless it says otherwise.
UniProt Q13315: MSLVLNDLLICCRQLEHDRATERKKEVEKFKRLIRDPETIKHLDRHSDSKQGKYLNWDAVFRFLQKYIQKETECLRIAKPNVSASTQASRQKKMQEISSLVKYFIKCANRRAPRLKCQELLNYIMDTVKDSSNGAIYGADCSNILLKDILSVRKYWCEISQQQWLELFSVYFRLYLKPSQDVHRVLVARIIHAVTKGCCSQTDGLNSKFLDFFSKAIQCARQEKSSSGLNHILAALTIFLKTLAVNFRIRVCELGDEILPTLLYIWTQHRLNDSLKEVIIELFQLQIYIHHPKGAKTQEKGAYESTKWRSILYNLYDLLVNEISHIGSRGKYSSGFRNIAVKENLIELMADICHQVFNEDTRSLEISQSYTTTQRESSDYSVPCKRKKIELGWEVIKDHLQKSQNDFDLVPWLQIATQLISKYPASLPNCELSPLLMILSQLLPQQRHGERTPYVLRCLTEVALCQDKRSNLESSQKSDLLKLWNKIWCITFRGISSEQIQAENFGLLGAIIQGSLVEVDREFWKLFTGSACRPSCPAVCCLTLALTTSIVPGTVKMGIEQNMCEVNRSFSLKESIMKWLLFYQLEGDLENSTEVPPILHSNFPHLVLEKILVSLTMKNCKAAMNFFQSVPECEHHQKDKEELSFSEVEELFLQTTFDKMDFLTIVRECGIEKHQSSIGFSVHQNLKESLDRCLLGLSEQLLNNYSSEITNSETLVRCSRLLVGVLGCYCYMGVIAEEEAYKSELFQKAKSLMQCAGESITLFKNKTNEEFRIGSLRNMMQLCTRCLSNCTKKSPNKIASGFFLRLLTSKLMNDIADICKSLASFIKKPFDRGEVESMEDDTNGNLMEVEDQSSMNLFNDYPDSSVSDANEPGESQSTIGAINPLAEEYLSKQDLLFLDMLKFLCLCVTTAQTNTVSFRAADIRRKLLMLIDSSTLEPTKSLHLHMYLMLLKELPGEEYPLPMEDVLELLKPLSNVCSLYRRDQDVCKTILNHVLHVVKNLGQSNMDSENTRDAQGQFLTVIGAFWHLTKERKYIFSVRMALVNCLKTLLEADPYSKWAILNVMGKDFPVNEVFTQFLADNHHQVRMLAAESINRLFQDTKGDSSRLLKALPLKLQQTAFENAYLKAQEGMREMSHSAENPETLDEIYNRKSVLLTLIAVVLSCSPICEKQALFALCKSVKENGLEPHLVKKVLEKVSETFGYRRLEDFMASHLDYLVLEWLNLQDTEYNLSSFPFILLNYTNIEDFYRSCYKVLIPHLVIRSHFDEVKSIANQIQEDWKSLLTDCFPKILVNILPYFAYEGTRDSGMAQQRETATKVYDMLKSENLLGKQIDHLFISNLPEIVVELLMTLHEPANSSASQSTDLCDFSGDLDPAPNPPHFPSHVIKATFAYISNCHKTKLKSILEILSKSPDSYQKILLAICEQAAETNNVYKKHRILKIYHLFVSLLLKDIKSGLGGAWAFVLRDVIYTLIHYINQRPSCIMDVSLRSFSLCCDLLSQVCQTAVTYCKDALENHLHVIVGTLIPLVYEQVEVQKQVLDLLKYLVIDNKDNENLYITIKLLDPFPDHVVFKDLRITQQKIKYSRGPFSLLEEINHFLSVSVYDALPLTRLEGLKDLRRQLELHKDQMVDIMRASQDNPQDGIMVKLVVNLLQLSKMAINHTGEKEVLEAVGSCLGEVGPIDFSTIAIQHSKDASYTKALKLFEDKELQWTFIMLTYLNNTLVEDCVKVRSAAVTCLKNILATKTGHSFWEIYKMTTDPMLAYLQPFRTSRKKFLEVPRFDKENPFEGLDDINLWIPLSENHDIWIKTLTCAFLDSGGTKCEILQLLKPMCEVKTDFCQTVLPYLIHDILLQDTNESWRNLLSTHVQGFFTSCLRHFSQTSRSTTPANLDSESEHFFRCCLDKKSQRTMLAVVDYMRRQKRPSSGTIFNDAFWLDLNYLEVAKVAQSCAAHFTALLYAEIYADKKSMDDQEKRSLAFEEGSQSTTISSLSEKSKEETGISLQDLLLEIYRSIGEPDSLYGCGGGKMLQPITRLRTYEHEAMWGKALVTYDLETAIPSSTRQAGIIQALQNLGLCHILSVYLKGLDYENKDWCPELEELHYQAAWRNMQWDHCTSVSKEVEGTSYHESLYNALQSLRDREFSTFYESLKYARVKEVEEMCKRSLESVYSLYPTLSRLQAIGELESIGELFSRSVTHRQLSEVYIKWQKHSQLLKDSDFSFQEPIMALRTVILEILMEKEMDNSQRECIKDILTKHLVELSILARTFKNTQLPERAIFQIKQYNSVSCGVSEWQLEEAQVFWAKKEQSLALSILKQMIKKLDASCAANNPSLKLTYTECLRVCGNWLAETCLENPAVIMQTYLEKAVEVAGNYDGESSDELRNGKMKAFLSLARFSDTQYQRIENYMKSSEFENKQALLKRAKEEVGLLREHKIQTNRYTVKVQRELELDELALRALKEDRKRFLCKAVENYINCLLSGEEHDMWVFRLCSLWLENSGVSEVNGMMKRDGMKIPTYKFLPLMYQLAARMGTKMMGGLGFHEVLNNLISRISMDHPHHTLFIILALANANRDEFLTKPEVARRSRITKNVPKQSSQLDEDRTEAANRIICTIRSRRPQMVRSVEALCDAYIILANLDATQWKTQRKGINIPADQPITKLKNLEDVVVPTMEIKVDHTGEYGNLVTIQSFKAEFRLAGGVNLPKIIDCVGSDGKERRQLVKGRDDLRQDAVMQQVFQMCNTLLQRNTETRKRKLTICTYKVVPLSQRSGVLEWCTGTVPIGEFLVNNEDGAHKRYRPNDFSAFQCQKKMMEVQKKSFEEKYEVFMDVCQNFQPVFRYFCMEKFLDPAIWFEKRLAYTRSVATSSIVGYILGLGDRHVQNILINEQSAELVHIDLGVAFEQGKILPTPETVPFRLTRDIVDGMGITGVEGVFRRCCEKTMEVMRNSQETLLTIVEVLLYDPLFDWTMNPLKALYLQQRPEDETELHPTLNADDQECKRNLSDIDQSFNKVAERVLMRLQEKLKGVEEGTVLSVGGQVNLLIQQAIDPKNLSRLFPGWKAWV

Target: Flag-His-ATM wt (ataxia-telangiectasia mutated, wild type) (UniProt Q13315)
Assay: co-IP; anti-FLAG M2 affinity gel on lysates of transfected ATM KO 293T cells, with or without 100 µM MnCl2, lysates at 6 or 14 h after Mn; overnight at 4°C, washed four times with TBS; Western blot for ATM and TBK1

Binder	binding
TANK-binding kinase 1 (TBK1), endogenous (enzyme, UniProt Q9UHD2 1-729) MQSTSNHLWLLSDILGQGATANVFRGRHKKTGDLFAIKVFNNISFLRPVDVQMREFEVLKKLNHKNIVKLFAIEEETTTRHKVLIMEFCPCGSLYTVLEEPSNAYGLPESEFLIVLRDVVGGMNHLRENGIVHRDIKPGNIMRVIGEDGQSVYKLTDFGAARELEDDEQFVSLYGTEEYLHPDMYERAVLRKDHQKKYGATVDLWSIGVTFYHAATGSLPFRPFEGPRRNKEVMYKIITGKPSGAISGVQKAENGPIDWSGDMPVSCSLSRGLQVLLTPVLANILEADQEKCWGFDQFFAETSDILHRMVIHVFSLQQMTAHKIYIHSYNTATIFHELVYKQTKIISSNQELIYEGRRLVLEPGRLAQHFPKTTEENPIFVVSREPLNTIGLIYEKISLPKVHPRYDLDGDASMAKAITGVVCYACRIASTLLLYQELMRKGIRWLIELIKDDYNETVHKKTEVVITLDFCIRNIEKTVKVYEKLMKINLEAAELGEISDIHTKLLRLSSSQGTIETSLQDIDSRLSPGGSLADAWAHQEGTHPKDRNVEKLQVLLNCMTEIYYQFKKDKAERRLAYNEEQIHKFDKQKLYYHATKAMTHFTDECVKKYEAFLNKSEEWIRKMLHLRKQLLSLTNQCFDIEEEVSKYQEYTNELQETLPQKMFTASSGIKHTMTPIYPSSNTLVEMTLGMKKLKEEMEGVVKELAENNHILERFGSLTMDGGLRNVDCL	binds
V5-His-TBK1 (overexpressed from pEF6/V5-His-TBK1) (enzyme, UniProt Q9UHD2 1-729) MQSTSNHLWLLSDILGQGATANVFRGRHKKTGDLFAIKVFNNISFLRPVDVQMREFEVLKKLNHKNIVKLFAIEEETTTRHKVLIMEFCPCGSLYTVLEEPSNAYGLPESEFLIVLRDVVGGMNHLRENGIVHRDIKPGNIMRVIGEDGQSVYKLTDFGAARELEDDEQFVSLYGTEEYLHPDMYERAVLRKDHQKKYGATVDLWSIGVTFYHAATGSLPFRPFEGPRRNKEVMYKIITGKPSGAISGVQKAENGPIDWSGDMPVSCSLSRGLQVLLTPVLANILEADQEKCWGFDQFFAETSDILHRMVIHVFSLQQMTAHKIYIHSYNTATIFHELVYKQTKIISSNQELIYEGRRLVLEPGRLAQHFPKTTEENPIFVVSREPLNTIGLIYEKISLPKVHPRYDLDGDASMAKAITGVVCYACRIASTLLLYQELMRKGIRWLIELIKDDYNETVHKKTEVVITLDFCIRNIEKTVKVYEKLMKINLEAAELGEISDIHTKLLRLSSSQGTIETSLQDIDSRLSPGGSLADAWAHQEGTHPKDRNVEKLQVLLNCMTEIYYQFKKDKAERRLAYNEEQIHKFDKQKLYYHATKAMTHFTDECVKKYEAFLNKSEEWIRKMLHLRKQLLSLTNQCFDIEEEVSKYQEYTNELQETLPQKMFTASSGIKHTMTPIYPSSNTLVEMTLGMKKLKEEMEGVVKELAENNHILERFGSLTMDGGLRNVDCL	binds
